## Assay results

By UniProt entry, the sequences of proteins in these tests, tags left out.
UniProt P04062, whole entry, target on record: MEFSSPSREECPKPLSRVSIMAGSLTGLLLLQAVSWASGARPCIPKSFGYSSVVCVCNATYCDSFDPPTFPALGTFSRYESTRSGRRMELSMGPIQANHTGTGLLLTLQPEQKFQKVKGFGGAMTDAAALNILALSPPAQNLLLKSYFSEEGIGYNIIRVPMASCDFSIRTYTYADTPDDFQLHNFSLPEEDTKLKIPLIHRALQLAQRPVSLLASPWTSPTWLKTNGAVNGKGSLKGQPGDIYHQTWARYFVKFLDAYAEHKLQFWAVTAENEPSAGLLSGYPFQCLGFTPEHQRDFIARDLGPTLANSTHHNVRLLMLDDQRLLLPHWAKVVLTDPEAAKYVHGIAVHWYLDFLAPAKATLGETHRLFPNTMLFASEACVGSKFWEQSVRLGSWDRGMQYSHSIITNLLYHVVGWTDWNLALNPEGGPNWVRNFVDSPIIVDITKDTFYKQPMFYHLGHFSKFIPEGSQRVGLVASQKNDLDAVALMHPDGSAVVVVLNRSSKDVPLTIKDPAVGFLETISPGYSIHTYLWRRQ

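Cleavage of a resorufin-linked glucose substrate by isolated lysosomal acid glucosylceramidase was followed by fluorescence over a 20-minute room-temperature incubation. Each compound was run as a titration series spanning about 0.6 nM up to 50 µM final. The number is the fitted half-maximal concentration (AC50); a lower value means a more potent inhibitor. The record treats a '>' qualifier as no measurable activity (inactive); no explicit numeric cut-off is stated.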

Values are in nM. All entries here are filed as inactive. Only inactive entries are shown; hits are left out here.

- CCOCCCn1c(=S)[nH]c2cc3c(cc2c1=O)OCO3 : Potency >76900 nM
- O=C(Nc1cccs1)Nc1ccccc1Cl : Potency >76900 nM
- COc1nc(N(C)C)nc(-n2nnc(C(C)=O)c2C)n1 : Potency >76900 nM
- COc1ccc(NC(=O)C2CCN(C(=O)NCc3ccccc3)CC2)cc1 : Potency >76900 nM
- CC1=C(C(=O)Nc2ccc(Cl)cc2)C(c2ccco2)NC(=O)N1 (centres undefined) : Potency >76900 nM
- Cc1ccc(NC(=O)C2C(=O)N(CCO)C3(C)CC2c2ccccc2O3)cc1 (centres undefined) : Potency >76900 nM
- CCOC(=O)c1ccc(NC(=O)N2CC(C)OC(C)C2)cc1 (centres undefined) : Potency >76900 nM
- COC(=O)COc1ccc(S(=O)(=O)NCc2ccco2)cc1Cl : Potency >76900 nM
- COc1ccccc1NC(=O)C1=C(C)Nc2nc(CCCO)nn2C1c1cccnc1 (centres undefined) : Potency >76900 nM
- CN1CCN(C(=O)C2CCN(S(=O)(=O)c3cnc[nH]3)CC2)CC1 : Potency >76900 nM
- Cc1ccc(NC(=O)C2CCN(S(=O)(=O)c3c(C)n[nH]c3C)CC2)nc1 : Potency >76900 nM
- CCS(=O)(=O)N1CCC(C(=O)NCCC2=CCCCC2)CC1 : Potency >76900 nM
- O=C(O)CCC(=O)Nc1ccc(Br)cn1 : Potency >76900 nM
- COc1ccccc1C(=O)NCc1ccncc1 : Potency >76900 nM
- Cc1ccc(Cl)cc1N1CCN(C(=O)CCS(=O)(=O)c2cccc3nonc23)CC1 : Potency >76900 nM
- O=c1c2c3nc4ccccc4nc3n(/N=C/c3cccs3)c2ncn1-c1ccccc1 : Potency >76900 nM
- COc1ccc(NC(=O)Cn2cccc2)cc1Cl : Potency >76900 nM
- CCN1CCCC1CNCc1ccc(Cl)cc1Cl (centres undefined) : Potency >76900 nM
- Cc1oc(C2CC2)cc1C(=O)O : Potency >76900 nM
- Cc1c(CNCc2cccs2)c(C(=O)O)c(C)n1Cc1ccccc1 : Potency 66599 nM
- CN1CCCC(OC(=O)CCCCC(=O)OC2CCCN(C)C2)C1 (centres undefined) : Potency >76900 nM
- CCOc1ccccc1N(CC(=O)N1CCOCC1)S(=O)(=O)c1ccc(SC)cc1 : Potency >76900 nM
- O=C(O)c1cc2cc(OCc3ccccc3)ccc2[nH]1 : Potency >76900 nM
- Cc1cc(NC(=O)CSc2nnc(-c3ccoc3C)n2N)no1 : Potency >76900 nM
- COC(=O)c1ccc2c(=O)n(Cc3ccco3)c(SCC(=O)Nc3ccc(C)c(Cl)c3)nc2c1 : Potency >76900 nM
- Cc1cccc(OCCC(=O)OCC(=O)N2CCc3ccccc32)c1 : Potency >76900 nM
- O=C1CC(N2CCN(c3ccc(C(=O)c4ccc(F)cc4)cc3)CC2)C(=O)N1 (centres undefined) : Potency >76900 nM
- CCOC(=O)c1cc(-c2cccs2)nc2onc(C)c12 : Potency >76900 nM
- Cc1nc(SCC(=O)N(C)Cc2ccco2)c2c(C)c(C)sc2n1 : Potency >76900 nM
- COC(=O)C1CCN(C(=O)c2cc(OC)c(OC)c(OC)c2)CC1 : Potency >76900 nM
- CC(C)C(C(=O)NCc1ccco1)N(C(=O)CNS(=O)(=O)c1ccccc1)C1CCCC1 (centres undefined) : Potency 37500 nM
- COc1ccc(S(=O)(=O)N2CCC(C(=O)Nc3nnc(CCN4CCCCC4)s3)CC2)cc1 : Potency >76900 nM
- Cc1cc(NC(=O)c2cnn3cccnc23)nn1CC(=O)Nc1cccnc1 : Potency >76900 nM
- O=C(CSc1nc(-c2ccccc2)cs1)Nc1nccs1 : Potency >76900 nM
- COCC(C)n1c(C)cc(C(=O)COC(=O)c2c(C)nn(-c3ccccc3)c2C)c1C (centres undefined) : Potency >76900 nM
- NS(=O)(=O)c1ccc(NC(=O)CSC2CCCCC2)cc1 : Potency >76900 nM
- CC(Oc1ccccc1)C(=O)NC1CCN(Cc2ccccc2)CC1 (centres undefined) : Potency >76900 nM
- O=C(c1ccco1)c1cn(CC(=O)N2CCCCC2)c2ccccc12 : Potency >76900 nM
- COc1ccc(OC)c(-c2cc(C(=O)Nc3cccc(Cl)c3)no2)c1 : Potency >76900 nM
- Cc1ccc(OCC(=O)N2CCN(C3=NS(=O)(=O)c4ccccc43)CC2)cc1 : Potency >76900 nM
- Cc1cc(C)c(S(=O)(=O)NCc2cn3c(C)csc3n2)c(C)c1 : Potency >76900 nM

Some entries from above, unchanged:

- COc1ccc(NC(=O)C2CCN(C(=O)NCc3ccccc3)CC2)cc1 | Potency >76900 nM
- Cc1c(CNCc2cccs2)c(C(=O)O)c(C)n1Cc1ccccc1 | Potency 66599 nM
- Cc1cc(C)c(S(=O)(=O)NCc2cn3c(C)csc3n2)c(C)c1 | Potency >76900 nM
- COCC(C)n1c(C)cc(C(=O)COC(=O)c2c(C)nn(-c3ccccc3)c2C)c1C (centres undefined) | Potency >76900 nM

Source: PubChem BioAssay AID360 (NCATS, 2006).